Our source for the binding values is PMC9100061.

The chains behind the UniProt entries cited, without tags or fusion partners. Where a name states a change or a piece, a line headed by the entry shows the natural chain unless it says otherwise.
UniProt O95831: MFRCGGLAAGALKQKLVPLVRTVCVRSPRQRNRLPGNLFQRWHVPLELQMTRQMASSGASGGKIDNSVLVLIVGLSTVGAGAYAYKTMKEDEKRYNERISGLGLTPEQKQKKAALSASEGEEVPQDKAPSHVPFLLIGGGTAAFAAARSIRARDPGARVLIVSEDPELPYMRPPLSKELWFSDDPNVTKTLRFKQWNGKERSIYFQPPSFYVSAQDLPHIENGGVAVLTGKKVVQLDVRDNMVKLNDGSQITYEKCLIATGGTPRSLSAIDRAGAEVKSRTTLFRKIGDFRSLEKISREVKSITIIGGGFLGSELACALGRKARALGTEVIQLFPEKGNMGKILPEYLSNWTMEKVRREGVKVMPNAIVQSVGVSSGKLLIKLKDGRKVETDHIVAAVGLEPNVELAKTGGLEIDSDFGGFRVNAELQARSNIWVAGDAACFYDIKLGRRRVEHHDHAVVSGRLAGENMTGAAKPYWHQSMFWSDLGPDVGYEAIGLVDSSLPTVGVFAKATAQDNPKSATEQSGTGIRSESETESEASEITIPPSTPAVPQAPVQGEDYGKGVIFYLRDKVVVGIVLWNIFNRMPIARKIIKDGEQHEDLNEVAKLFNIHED

This test addresses FLAG-tagged AIFM1 (UniProt O95831). Description: co-IP; IP with Anti-FLAG M2 Affinity Gel under native conditions from TorsinKO HeLa cells co-expressing MLF2-HA and a FLAG-tagged construct for 24 h; NET buffer (150 mM NaCl, 50 mM Tris pH 7.4, 0.5% NP-40) with 5 mM NEM; immunoblot against FLAG and HA. In general terms: A western blot detects proteins with antibodies after separation by electrophoresis.

These are yes or no findings as the source states them, for the method shown. Binding seen in cells or lysates may run through a third protein. A result given as binding can be weak or reduced; the word gives no strength. Where a sequence is shown, tags or fusion partners need not be part of it.

B1: myeloid leukemia factor 2 (MLF2), HA-tagged (protein, UniProt Q15773 1-248)
chain: MFRFMRDVEPEDPMFLMDPFAIHRQHMSRMLSGGFGYSPFLSITDGNMPGTRPASRRMQQAGAVSPFGMLGMSGGFMDMFGMMNDMIGNMEHMTAGGNCQTFSSSTVISYSNTGDGAPKVYQETSEMRSAPGGIRETRRTVRDSDSGLEQMSIGHHIRDRAHILQRSRNHRTGDQEERQDYINLDESEAAAFDDEWRRETSRFRQQRPLEFRRLESSGAGGRRAEGPPRLAIQGPEDSPSRQSRRYDW
On to B1, for which the binding result is “binds”.
